These results are taken from the supplement of paper PMC12823440, “Inhibitors supercharge kinase turnover through native proteolytic circuits” (Nature, 2025).

Protein sequences, listed by entry. Tags and fused reporters are not part of them. Lines headed by an entry give the natural chain unless they say otherwise; changes in a name come on top.
UniProt P53667: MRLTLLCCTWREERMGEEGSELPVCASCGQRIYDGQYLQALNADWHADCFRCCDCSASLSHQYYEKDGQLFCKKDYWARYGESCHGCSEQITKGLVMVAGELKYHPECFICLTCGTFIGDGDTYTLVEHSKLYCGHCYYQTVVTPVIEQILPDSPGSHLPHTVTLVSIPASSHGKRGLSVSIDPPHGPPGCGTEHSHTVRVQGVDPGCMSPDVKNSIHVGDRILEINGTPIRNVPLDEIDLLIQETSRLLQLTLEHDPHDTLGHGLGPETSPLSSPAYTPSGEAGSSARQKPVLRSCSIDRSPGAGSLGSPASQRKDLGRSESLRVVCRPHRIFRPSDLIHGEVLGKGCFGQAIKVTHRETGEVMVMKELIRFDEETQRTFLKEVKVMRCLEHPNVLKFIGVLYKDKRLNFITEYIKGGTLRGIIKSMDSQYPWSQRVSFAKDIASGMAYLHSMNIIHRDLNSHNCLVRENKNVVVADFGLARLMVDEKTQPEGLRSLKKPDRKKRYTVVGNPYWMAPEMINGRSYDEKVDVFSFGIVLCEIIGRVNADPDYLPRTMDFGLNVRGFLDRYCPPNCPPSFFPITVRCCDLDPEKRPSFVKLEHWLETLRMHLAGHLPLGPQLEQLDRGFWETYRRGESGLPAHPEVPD

This is one part of the list. Hit calls seldom repeat between salt and free forms of one compound.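 In K562 cells expressing nanoluciferase-fused kinases, luminescence was recorded at 4 h intervals between 2 and 18 h, normalized as percent of control with DMSO at 100% and a positive control at 0%. A significant (2 sigma) signal drop marks a time point as decreased. The authors' rule for a hit is not shown and takes in more than the number of time points.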

For this experiment, the target named is LIMK1 (UniProt P53667). The experiment is described as follows: number of time points (of 5) at which kinase-Nluc abundance scored as decreased, DMSO-normalised (count); higher = more persistent destabilization. The note with it: K562; 2-18 h.
For the compound `CCc1c(C(=O)NNC(=O)C(O)c2cc(F)cc(F)c2)ccc(O)c1C` (stereo not given) (10 µM), the “number of time points” value was found to be 0.

Take `COc1cc2ncnc(Nc3ccc(Cl)cc3F)c2cc1OC` (10 µM): the “number of time points” value came out at 0.

`COc1cc(/C=C/C(=O)NCC(O)c2ccc(O)cc2)ccc1O` (stereo not given) [N-Feruloyloctopamine] (2.5 µM): the “number of time points” value is 0.

As to `NC(=O)c1nc(Nc2ccccc2)sc1NC(=O)C1CCCCC1` (10 µM), the “number of time points” value came to 0.

On to `O=c1cc(CN2CCOCC2)occ1OCCCCCSc1ccnc2cc(C(F)(F)F)ccc12` (10 µM), for which the “number of time points” value was determined as 0.

For `O=C(O)CCC(=O)Nc1ccc(Br)cn1` [Bikinin] (10 µM), the “number of time points” value was found to be 0.

Regarding `CC[C@@H](Oc1nc(Oc2cc(C)cc(-c3cccc(CN)c3)c2)c(F)cc1F)C(=O)O` (10 µM), the “number of time points” value was determined as 0.

Consider `C[C@]1(O)CCN(c2nc(N3C[C@H](O)[C@@H](O)C3)cc(C(F)(F)F)c2C#N)C1` (10 µM), for which the “number of time points” value amounted to 0.

In the case of `COc1ccccc1-c1cc(Nc2cccc(CS(N)(=O)=O)c2)ncn1` (10 µM), the “number of time points” value is 0.

With `CC(=O)c1c(C)cc2cccc(O)c2c1O` [Nepodin] (10 µM), the “number of time points” value turned out to be 0.

Consider `NC(=O)c1ccc2[nH]ccc2c1` (10 µM), for which the “number of time points” value turned out to be 0.

`COc1cc2c(cc1OC)CN(S(=O)(=O)c1ccc(OC)c(N3CCN(C(=O)c4ccc(F)cc4C(F)(F)F)CC3)c1)CC2` (10 µM): the “number of time points” value is 0.

In the case of `OCCn1cc(-c2ccc3c(c2)CC/C3=N\O)c(-c2ccncc2)n1` (10 µM), the “number of time points” value is 0.

For `C[C@@H]1CC[C@@H](Nc2nc(NC(C)(C)C)ncc2C(N)=O)C[C@H]1O` (10 µM), the “number of time points” value was 0.

`CCc1cc2c(cc1N1CCC(N3CCOCC3)CC1)C(C)(C)c1[nH]c3cc(C#N)ccc3c1C2=O` [Alectinib] (10 µM): the “number of time points” value was found to be 0.
